Data from US20170189504A1, “NOVEL PEPTIDES AND COMBINATION OF PEPTIDES FOR USE IN IMMUNOTHERAPY AGAINST VARIOUS CANCERS” (immatics biotechnologies GmbH, priority 2015, published 2017).
For some assays here: Expression grades refer to the transcript from which the peptide derives; gene names, where given, were looked up from the sequence.

Assays:
HLA-A*24 = experiment: Identification and relative LC-MS quantitation of HLA-A*24-presented tumor-associated peptides on tissue samples (presentation profiles, Tables 14A, 14B, 16, FIG. 1); design: species or system human; key to Presentation score GC / Presentation score NSCLC / Presentation score PCA / Presentation score GB / Presentation score HCC / Presentation score RCC: specifically presented on tumors (++++); very highly over-presented on tumors compared to a panel of normal tissues (+++); highly over-presented on tumors compared to a panel of normal tissues (++); over-presented on tumors compared to a panel of normal tissues (+); conditions: for Presentation score GC: gastric cancer (N = 44) vs panel of normal tissues (N = 70); for Presentation score GB: glioblastoma (N = 18) vs panel of normal tissues (N = 70); for Presentation score NSCLC: non-small cell lung cancer (N = 91) vs panel of normal tissues (N = 70); for Presentation score PCA: prostate cancer (N = 40) vs panel of normal tissues (N = 70)
HLA-A*02 = experiment: Identification and relative LC-MS quantitation of HLA-A*02-presented tumor-associated peptides on tissue samples (presentation profiles, Tables 13A, 13B, 15, FIG. 1); design: species or system human; key to Presentation score NHL / Presentation score CLL / Presentation score BRCA / Presentation score AML / Presentation score GB / Presentation score NSCLC / Presentation score GBC_CCC / Presentation score UEC / Presentation score MEL / Presentation score OSCAR / Presentation score GC / Presentation score UBC / Presentation score OC / Presentation score RCC / Presentation score CRC / Presentation score PCA / Presentation score HCC / Presentation score PC / Presentation score SCLC: specifically presented on tumors (++++); very highly over-presented on tumors compared to a panel of normal tissues (+++); highly over-presented on tumors compared to a panel of normal tissues (++); over-presented on tumors compared to a panel of normal tissues (+); conditions: for Peptide Presentation on cancer entities: Table 13A, HLA-A*02-binding tumor-associated peptides, cancer entities on which the peptide was found presented
source genes (mRNA) [1] = experiment: Gene and exon expression of source genes, TCGA tumor samples compared with normal tissue samples (Lonsdale, 2013) (Table 17); design: species or system human; conditions: for Over-expression category of source gene (target coverage), CHOL: CHOL = Cholangiocarcinoma (N = 36); for Over-expression category of source gene (target coverage), GBM: GBM = Glioblastoma multiforme (N = 169); for Over-expression category of source gene (target coverage), KIRP: KIRP = Papillary kidney carcinoma (N = 291); for Over-expression category of source gene (target coverage), LIHC: LIHC = Liver hepatocellular carcinoma (N = 374); for Over-expression category of source gene (target coverage), LUAD: LUAD = Lung adenocarcinoma (N = 517); for Over-expression category of source gene (target coverage), PRAD: PRAD = Prostate adenocarcinoma (N = 498); for Over-expression category of source gene (target coverage), SKCM: SKCM = Skin cutaneous melanoma (N = 473)
source genes (mRNA) [2] = experiment: Expression profiling of source genes by in-house RNASeq of tumor and normal tissues (Table 18, FIG. 2); design: species or system human; key: very highly over-expressed in tumors compared to a panel of normal tissues (+++); highly over-expressed in tumors compared to a panel of normal tissues (++); over-expressed in tumors compared to a panel of normal tissues (+); conditions: source gene of peptide
[3] = Table 14A, HLA-A*24-binding tumor-associated peptides, cancer entities on which the peptide was found presented

174 (VYVGGGQIIHL; listed as Homo sapiens) [compound 174]
Presentation score GC (HLA-A*24; HLA-A*24 peptides): ++++
Presentation score GB (HLA-A*24; HLA-A*24 peptides): ++++
Presentation score NSCLC (HLA-A*24; HLA-A*24 peptides): ++++
Peptide Presentation on cancer entities (HLA-A*24; [3]): GB, GC, NSCLC

175 (YYEVHKELF; listed as Homo sapiens) [compound 175]
Presentation score GC (HLA-A*24; HLA-A*24 peptides): ++++
Presentation score HCC (HLA-A*24; HLA-A*24 peptides, hepatocellular carcinoma (N = 15) vs panel of normal tissues (N = 70)): ++++
Presentation score NSCLC (HLA-A*24; HLA-A*24 peptides): ++++
Peptide Presentation on cancer entities (HLA-A*24; [3]): GC, NSCLC, HCC

176 (EYNQWFTKL; listed as Homo sapiens) [compound 176]
Presentation score GC (HLA-A*24; HLA-A*24 peptides): ++++
Presentation score NSCLC (HLA-A*24; HLA-A*24 peptides): ++++
Peptide Presentation on cancer entities (HLA-A*24; [3]): GC, NSCLC

178 (IFIEVFSHF; listed as Homo sapiens) [compound 178]
Peptide Presentation on cancer entities (HLA-A*24; HLA-A*24-binding peptides, additional cancer entities, GB = glioblastoma, HCC = hepatocellular carcinoma, NSCLC = non-small cell lung cancer, PCA = prostate cancer): HCC
Presentation score GC (HLA-A*24; HLA-A*24 peptides): ++++
Presentation score NSCLC (HLA-A*24; HLA-A*24 peptides): ++++
Peptide Presentation on cancer entities (HLA-A*24; [3]): GC, NSCLC

179 (MYDSYWRQF; listed as Homo sapiens) [compound 179]
Presentation score GB (HLA-A*24; HLA-A*24 peptides): ++++
Presentation score NSCLC (HLA-A*24; HLA-A*24 peptides): ++++
Peptide Presentation on cancer entities (HLA-A*24; [3]): GB, NSCLC

181 (LYLDIINLF; listed as Homo sapiens) [compound 181]
Presentation score GC (HLA-A*24; HLA-A*24 peptides): ++++
Presentation score NSCLC (HLA-A*24; HLA-A*24 peptides): ++++
Presentation score PCA (HLA-A*24; HLA-A*24 peptides): ++++
Peptide Presentation on cancer entities (HLA-A*24; [3]): GC, NSCLC, PCA

182 (IYQLDTASI; listed as Homo sapiens) [compound 182]
Presentation score GC (HLA-A*24; HLA-A*24 peptides): ++++
Presentation score NSCLC (HLA-A*24; HLA-A*24 peptides): ++++
Presentation score PCA (HLA-A*24; HLA-A*24 peptides): ++++
Peptide Presentation on cancer entities (HLA-A*24; [3]): GC, NSCLC, PCA

292: peptide found in SLC35E1 (gene looked up) (GMMTAILGV; listed as Homo sapiens) [compound 292]
Presentation score CRC (HLA-A*02; HLA-A*02 peptides, colorectal cancer (N = 28) vs panel of normal tissues (N = 262)): +++
Presentation score GBC_CCC (HLA-A*02; HLA-A*02 peptides, gallbladder adenocarcinoma and cholangiocarcinoma (N = 6) vs panel of normal tissues (N = 262)): +++
Presentation score GB (HLA-A*02; HLA-A*02 peptides, glioblastoma (N = 41) vs panel of normal tissues (N = 262)): +++
Presentation score NHL (HLA-A*02; HLA-A*02 peptides, non-Hodgkin lymphoma (N = 18) vs panel of normal tissues (N = 262)): ++
Presentation score NSCLC (HLA-A*02; HLA-A*02 peptides, non-small cell lung cancer (N = 90) vs panel of normal tissues (N = 262)): +++
Presentation score UEC (HLA-A*02; HLA-A*02 peptides, uterine cancer (N = 15) vs panel of normal tissues (N = 262)): +++
Peptide Presentation on cancer entities (HLA-A*02): GB, GC, NSCLC, HCC, PCA, CLL, UEC, GBC_CCC, RCC, CRC, PC, AML, NHL
Over-expression category of source gene (target coverage), BLCA (source genes (mRNA) [1]; BLCA = Bladder urothelial carcinoma (N = 408), same cutoff): A (>=50% of tumors above the cutoff)
Over-expression category of source gene (target coverage), BRCA (source genes (mRNA) [1]; BRCA = Breast cancer (N = 1104), tumors more than 2-fold above highest 75% percentile of normal tissues): A (>=50% of tumors above the cutoff)
Over-expression category of source gene (target coverage), CHOL (source genes (mRNA) [1]; same cutoff): A (>=50% of tumors above the cutoff)
Over-expression category of source gene (target coverage), COAD (source genes (mRNA) [1]; COAD = Colon and rectal adenocarcinoma (N = 462), same cutoff): A (>=50% of tumors above the cutoff)
Over-expression category of source gene (target coverage), DLBC (source genes (mRNA) [1]; DLBC = Lymphoid neoplasm diffuse large B-cell lymphoma (N = 48), same cutoff): B (>= 20% of tumors above the cutoff, but <50%)
Over-expression category of source gene (target coverage), ESCA (source genes (mRNA) [1]; ESCA = Esophageal cancer (N = 185), same cutoff): A (>=50% of tumors above the cutoff)
Over-expression category of source gene (target coverage), GBM (source genes (mRNA) [1]; same cutoff): A (>=50% of tumors above the cutoff)
Over-expression category of source gene (target coverage), KICH (source genes (mRNA) [1]; KICH = Kidney chromophobe (N = 66), same cutoff): A (>=50% of tumors above the cutoff)
Over-expression category of source gene (target coverage), KIRC (source genes (mRNA) [1]; KIRC = Clear cell kidney carcinoma (N = 534), same cutoff): A (>=50% of tumors above the cutoff)
Over-expression category of source gene (target coverage), KIRP (source genes (mRNA) [1]; same cutoff): A (>=50% of tumors above the cutoff)
Over-expression category of source gene (target coverage), LAML (source genes (mRNA) [1]; LAML = Acute Myeloid Leukemia (N = 173), same cutoff): A (>=50% of tumors above the cutoff)
Over-expression category of source gene (target coverage), LGG (source genes (mRNA) [1]; LGG = Lower grade glioma (N = 534), same cutoff): A (>=50% of tumors above the cutoff)
Over-expression category of source gene (target coverage), LIHC (source genes (mRNA) [1]; same cutoff): C (>=5% of tumors above the cutoff, but <20%)
Over-expression category of source gene (target coverage), LUAD (source genes (mRNA) [1]; same cutoff): A (>=50% of tumors above the cutoff)
Over-expression category of source gene (target coverage), LUSC (source genes (mRNA) [1]; LUSC = Lung squamous cell carcinoma (N = 503), same cutoff): A (>=50% of tumors above the cutoff)
Over-expression category of source gene (target coverage), OV (source genes (mRNA) [1]; OV = Ovarian serous cystadenocarcinoma (N = 309), same cutoff): A (>=50% of tumors above the cutoff)
Over-expression category of source gene (target coverage), PAAD (source genes (mRNA) [1]; PAAD = Pancreatic ductal adenocarcinoma (N = 179), same cutoff): A (>=50% of tumors above the cutoff)
Over-expression category of source gene (target coverage), PRAD (source genes (mRNA) [1]; same cutoff): A (>=50% of tumors above the cutoff)
Over-expression category of source gene (target coverage), READ (source genes (mRNA) [1]; READ = Colon and rectal adenocarcinoma (N = 167), same cutoff): A (>=50% of tumors above the cutoff)
Over-expression category of source gene (target coverage), SKCM (source genes (mRNA) [1]; same cutoff): A (>=50% of tumors above the cutoff)
Over-expression category of source gene (target coverage), STAD (source genes (mRNA) [1]; STAD = Stomach adenocarcinoma (N = 415), same cutoff): A (>=50% of tumors above the cutoff)
Over-expression category of source gene (target coverage), UCEC (source genes (mRNA) [1]; UCEC = Uterine corpus endometrial carcinoma (N = 546), same cutoff): A (>=50% of tumors above the cutoff)
Expression score OC (source genes (mRNA) [2]; ovarian cancer (N = 12) vs panel of normal tissues): +

294: peptide found in TRPM8 (gene looked up) (GLMKYIGEV; listed as Homo sapiens) [compound 294]
Presentation score PCA (HLA-A*02; HLA-A*02 peptides, prostate cancer and benign prostate hyperplasia (N = 39) vs panel of normal tissues (N = 262)): ++++
Peptide Presentation on cancer entities (HLA-A*02): PCA
Over-expression category of source gene (target coverage), CHOL (source genes (mRNA) [1]; same cutoff): C (>=5% of tumors above the cutoff, but <20%)
Over-expression category of source gene (target coverage), GBM (source genes (mRNA) [1]; same cutoff): C (>=5% of tumors above the cutoff, but <20%)
Over-expression category of source gene (target coverage), KIRP (source genes (mRNA) [1]; same cutoff): C (>=5% of tumors above the cutoff, but <20%)
Over-expression category of source gene (target coverage), LIHC (source genes (mRNA) [1]; same cutoff): B (>= 20% of tumors above the cutoff, but <50%)
Over-expression category of source gene (target coverage), LUAD (source genes (mRNA) [1]; same cutoff): C (>=5% of tumors above the cutoff, but <20%)
Over-expression category of source gene (target coverage), PRAD (source genes (mRNA) [1]; same cutoff): A (>=50% of tumors above the cutoff)
Over-expression category of source gene (target coverage), SKCM (source genes (mRNA) [1]; same cutoff): C (>=5% of tumors above the cutoff, but <20%)
Expression score GB (source genes (mRNA) [2]; glioblastoma (N = 24) vs panel of normal tissues): +++
Expression score HCC (source genes (mRNA) [2]; hepatocellular carcinoma (N = 15) vs panel of normal tissues): ++
Expression score PC (source genes (mRNA) [2]; pancreatic cancer (N = 26) vs panel of normal tissues): +
Expression score PCA (source genes (mRNA) [2]; prostate cancer and benign prostate hyperplasia (N = 5) vs panel of normal tissues): +++
Expression score SCLC (source genes (mRNA) [2]; small cell lung cancer (N = 10) vs panel of normal tissues): +++
Expression score UEC (source genes (mRNA) [2]; uterine cancer (N = 10) vs panel of normal tissues): +
